Results as given in US11779597B2, “Method of treating Parkinson's and other neurodegenerative diseases” (Vector Vitale IP LLC, priority 2019, dated 2023).

Assays:
microglia = experiment: Functional and phenotypic properties of microglia in LPS rat models; format: in vivo; details: sham-operated animals
Description: (§1) On the 1st day of the experiment, rats were either operated to model hemi-parkinsonism or sham operated. From the 9th to the 18th day of the experiment, the animals were injected either deuterium-depleted water or the test substance, according to their allocation into groups, for 10 days. On the 8th day of the experiment (before initiation of treatment—apomorphine test I) and on the 21st day of the experiment (after the end of administering the test substance —apomorphine test II) the animals underwent an apomorphine test to analyze the development of hemi-parkinsonism which correlates with the number of destroyed dopaminergic neurons. In addition, a follow-up analysis of fecal water content was carried out, i.e., before the start of treatment on the 8th day after the operation, as well as on the 21st (after the end of treatment) and the 28th day (before autopsy). […]
(§2) To assess the anti-inflammatory and immunomodulating effects of the test substance, microglia and peritoneal macrophages were isolated. Phenotypic and functional features of peripheral blood phagocytes were evaluated without their fractioning (using whole blood). […]
(§3) Phagocytic activity of microglia, peritoneal macrophages and peripheral blood phagocytes was analyzed on a flow cytometer using FITC-labeled S. aureus Wood 46 cells as an object of phagocytosis. […]

peritoneal macrophages = experiment: Functional and phenotypic properties of peritoneal phagocytes in LPS rat models; format: in vivo; details: sham-operated animals
Description: as §1, §2, §3

“^64Zn-enriched zinc aspartate [^64Zne-asp]” was tested, and the “expression of all phenotypic markers under study (CD206, CD80, CD86) in microglia” value (microglia) was “decrease”, the “number of CD206+ and CD80+ cells in microglia” value (microglia) was “sharply increased” and the “expression of all phenotypic markers in peritoneal macrophages” value (peritoneal macrophages) was “sharp increase”.
